Measured values as given in the supplement of paper PMC10849652.
The other results are listed elsewhere or left out.

Sequences of proteins named here, by UniProt entry; tags and fusion partners are left off. A change or cut given only in a name is not applied to a line headed by its entry.
UniProt P17174: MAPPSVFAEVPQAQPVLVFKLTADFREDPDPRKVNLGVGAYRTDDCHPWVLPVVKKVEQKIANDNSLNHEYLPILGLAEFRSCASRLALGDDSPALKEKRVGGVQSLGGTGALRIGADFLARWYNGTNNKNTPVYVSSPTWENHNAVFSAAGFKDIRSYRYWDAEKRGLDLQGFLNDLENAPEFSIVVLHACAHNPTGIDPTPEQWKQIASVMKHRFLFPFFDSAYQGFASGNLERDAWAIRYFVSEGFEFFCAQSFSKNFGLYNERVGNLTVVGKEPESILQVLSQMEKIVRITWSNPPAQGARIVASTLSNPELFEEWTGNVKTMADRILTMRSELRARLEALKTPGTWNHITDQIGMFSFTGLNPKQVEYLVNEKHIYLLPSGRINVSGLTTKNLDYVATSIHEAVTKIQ
UniProt P06280: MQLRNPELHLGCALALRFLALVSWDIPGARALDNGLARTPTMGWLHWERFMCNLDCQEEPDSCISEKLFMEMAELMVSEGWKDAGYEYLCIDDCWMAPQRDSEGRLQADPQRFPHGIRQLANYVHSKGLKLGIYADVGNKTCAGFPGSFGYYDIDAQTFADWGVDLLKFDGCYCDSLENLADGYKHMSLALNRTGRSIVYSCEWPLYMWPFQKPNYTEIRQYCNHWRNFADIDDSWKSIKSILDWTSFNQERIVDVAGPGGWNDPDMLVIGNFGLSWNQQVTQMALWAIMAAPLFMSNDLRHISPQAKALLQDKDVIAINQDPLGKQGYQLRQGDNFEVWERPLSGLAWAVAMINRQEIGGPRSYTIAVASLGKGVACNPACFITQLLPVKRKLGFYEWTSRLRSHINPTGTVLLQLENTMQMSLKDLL
UniProt P08754, whole entry, looked up: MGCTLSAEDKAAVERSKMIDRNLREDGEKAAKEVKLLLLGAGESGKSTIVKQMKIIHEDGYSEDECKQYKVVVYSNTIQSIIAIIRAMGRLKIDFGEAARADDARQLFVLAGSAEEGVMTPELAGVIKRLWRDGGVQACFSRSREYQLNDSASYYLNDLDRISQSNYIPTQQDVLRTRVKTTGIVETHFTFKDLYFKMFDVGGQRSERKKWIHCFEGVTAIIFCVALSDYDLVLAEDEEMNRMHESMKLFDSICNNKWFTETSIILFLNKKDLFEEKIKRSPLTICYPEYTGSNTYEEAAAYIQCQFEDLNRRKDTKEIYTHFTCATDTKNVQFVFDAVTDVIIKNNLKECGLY
UniProt P36915, whole entry, looked up: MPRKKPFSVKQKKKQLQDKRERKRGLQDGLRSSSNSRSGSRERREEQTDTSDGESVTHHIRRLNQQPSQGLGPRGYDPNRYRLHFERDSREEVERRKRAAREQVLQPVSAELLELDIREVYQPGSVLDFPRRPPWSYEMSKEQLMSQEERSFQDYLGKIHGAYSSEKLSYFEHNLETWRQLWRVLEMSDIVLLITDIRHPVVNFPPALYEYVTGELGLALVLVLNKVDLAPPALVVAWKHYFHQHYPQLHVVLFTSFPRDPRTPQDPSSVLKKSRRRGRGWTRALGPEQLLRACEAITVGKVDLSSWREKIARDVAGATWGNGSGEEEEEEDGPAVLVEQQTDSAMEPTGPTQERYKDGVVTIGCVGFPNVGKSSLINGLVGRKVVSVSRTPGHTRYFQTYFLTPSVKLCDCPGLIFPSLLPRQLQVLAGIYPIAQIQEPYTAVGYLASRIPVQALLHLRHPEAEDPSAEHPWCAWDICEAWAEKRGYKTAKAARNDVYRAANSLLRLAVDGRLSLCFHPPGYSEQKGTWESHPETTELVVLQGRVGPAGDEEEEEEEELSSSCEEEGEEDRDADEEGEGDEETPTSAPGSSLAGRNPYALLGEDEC
UniProt Q8IW92: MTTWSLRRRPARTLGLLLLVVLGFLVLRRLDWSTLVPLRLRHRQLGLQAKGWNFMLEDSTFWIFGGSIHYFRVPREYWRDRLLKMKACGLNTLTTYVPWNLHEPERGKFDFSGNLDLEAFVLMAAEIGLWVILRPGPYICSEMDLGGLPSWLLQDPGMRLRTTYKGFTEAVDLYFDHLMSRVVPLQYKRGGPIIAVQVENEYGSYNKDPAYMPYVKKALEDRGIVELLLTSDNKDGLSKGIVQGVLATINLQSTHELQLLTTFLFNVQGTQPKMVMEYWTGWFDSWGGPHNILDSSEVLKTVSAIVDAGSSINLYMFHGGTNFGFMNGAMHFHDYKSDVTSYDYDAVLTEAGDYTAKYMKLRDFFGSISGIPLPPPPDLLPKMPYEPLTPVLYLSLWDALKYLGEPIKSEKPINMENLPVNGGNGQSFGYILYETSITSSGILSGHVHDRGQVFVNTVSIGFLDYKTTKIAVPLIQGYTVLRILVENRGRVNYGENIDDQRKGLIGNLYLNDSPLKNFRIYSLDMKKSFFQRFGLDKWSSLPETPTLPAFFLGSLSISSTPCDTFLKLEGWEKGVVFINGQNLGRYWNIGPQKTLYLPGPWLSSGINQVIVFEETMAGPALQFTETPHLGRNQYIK
UniProt P46926: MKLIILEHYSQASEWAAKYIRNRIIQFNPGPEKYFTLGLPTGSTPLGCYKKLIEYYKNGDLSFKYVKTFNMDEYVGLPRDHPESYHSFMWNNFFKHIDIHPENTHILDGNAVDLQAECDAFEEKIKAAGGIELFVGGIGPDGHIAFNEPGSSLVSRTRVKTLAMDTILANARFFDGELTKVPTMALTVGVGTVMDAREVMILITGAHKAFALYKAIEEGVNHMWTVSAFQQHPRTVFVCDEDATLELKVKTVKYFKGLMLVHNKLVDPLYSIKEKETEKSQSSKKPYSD
UniProt P04899, whole entry, looked up: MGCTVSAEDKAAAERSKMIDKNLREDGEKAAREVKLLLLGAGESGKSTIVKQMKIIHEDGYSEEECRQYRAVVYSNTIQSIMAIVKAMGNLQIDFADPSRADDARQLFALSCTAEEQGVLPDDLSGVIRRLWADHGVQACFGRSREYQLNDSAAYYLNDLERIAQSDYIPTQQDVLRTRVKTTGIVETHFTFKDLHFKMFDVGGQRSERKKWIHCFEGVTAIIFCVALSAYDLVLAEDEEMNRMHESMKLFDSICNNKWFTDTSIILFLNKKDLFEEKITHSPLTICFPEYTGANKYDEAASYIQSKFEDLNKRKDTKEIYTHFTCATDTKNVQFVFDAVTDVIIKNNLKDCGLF
UniProt Q8N335: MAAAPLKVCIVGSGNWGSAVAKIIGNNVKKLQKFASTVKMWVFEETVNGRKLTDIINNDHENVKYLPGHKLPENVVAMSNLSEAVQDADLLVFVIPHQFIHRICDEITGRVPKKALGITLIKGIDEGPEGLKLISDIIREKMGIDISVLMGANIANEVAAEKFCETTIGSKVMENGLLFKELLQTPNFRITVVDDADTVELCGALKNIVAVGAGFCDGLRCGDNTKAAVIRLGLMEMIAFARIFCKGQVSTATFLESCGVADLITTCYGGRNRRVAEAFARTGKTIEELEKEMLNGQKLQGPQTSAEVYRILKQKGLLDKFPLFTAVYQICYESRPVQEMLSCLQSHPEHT
UniProt Q9Y3E0: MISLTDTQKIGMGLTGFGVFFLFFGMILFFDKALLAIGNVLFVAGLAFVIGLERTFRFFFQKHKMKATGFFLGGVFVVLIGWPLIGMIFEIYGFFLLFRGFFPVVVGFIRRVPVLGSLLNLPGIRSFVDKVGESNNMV
UniProt Q14344, whole entry, looked up: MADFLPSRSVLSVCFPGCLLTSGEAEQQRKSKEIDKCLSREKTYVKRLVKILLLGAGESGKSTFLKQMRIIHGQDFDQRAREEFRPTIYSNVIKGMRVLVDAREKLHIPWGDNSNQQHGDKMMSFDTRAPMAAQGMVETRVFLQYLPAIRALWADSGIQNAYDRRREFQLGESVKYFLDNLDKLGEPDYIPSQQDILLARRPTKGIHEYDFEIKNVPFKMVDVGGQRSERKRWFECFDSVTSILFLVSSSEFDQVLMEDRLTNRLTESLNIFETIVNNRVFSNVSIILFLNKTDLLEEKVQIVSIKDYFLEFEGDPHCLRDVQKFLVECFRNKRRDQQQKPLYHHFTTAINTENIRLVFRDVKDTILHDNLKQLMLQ
UniProt Q8IXQ4: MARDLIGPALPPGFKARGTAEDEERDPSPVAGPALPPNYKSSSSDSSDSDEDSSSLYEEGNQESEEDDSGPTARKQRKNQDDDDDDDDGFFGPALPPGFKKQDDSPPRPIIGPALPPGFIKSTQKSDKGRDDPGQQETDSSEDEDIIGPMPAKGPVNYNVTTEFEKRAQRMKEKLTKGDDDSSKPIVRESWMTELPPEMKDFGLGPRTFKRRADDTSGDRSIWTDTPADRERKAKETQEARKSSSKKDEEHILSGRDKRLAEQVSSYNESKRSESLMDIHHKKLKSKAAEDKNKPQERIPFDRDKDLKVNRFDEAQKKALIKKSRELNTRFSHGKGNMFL
UniProt P62873, whole entry, looked up: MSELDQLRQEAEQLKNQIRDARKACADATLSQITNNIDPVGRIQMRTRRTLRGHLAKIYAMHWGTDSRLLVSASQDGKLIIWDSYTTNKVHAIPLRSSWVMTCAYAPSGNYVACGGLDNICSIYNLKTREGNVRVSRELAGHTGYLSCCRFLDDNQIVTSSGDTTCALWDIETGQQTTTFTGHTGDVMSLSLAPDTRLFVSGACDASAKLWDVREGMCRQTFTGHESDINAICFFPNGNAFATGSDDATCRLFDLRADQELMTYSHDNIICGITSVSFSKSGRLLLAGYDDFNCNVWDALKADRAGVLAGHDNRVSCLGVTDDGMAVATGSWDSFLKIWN
UniProt Q9BRT9, whole entry, looked up: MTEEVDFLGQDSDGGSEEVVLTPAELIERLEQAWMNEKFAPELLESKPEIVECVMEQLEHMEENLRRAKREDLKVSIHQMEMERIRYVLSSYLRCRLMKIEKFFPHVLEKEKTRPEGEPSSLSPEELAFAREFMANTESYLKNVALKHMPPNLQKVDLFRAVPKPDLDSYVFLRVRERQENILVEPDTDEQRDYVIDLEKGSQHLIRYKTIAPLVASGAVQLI
UniProt Q9UHW5, whole entry, looked up: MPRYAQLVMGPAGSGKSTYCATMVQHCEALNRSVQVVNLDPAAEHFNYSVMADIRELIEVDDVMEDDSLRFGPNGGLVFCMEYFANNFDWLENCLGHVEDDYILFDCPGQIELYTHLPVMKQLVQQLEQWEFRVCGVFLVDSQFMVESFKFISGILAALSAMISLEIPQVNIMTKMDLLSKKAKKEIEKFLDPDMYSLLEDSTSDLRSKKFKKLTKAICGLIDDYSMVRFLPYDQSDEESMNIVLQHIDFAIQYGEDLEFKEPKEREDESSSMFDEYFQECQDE
UniProt Q96EK6: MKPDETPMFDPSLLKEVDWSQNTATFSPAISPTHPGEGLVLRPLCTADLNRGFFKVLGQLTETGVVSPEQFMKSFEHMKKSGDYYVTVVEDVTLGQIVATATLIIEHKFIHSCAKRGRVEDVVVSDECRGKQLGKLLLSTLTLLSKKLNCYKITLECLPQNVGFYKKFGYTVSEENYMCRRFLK
UniProt P17900: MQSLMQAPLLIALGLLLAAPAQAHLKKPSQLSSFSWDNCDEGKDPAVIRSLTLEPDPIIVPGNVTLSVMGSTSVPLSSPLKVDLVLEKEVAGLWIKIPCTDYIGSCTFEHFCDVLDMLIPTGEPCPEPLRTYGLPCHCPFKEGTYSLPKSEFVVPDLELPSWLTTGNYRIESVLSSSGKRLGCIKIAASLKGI
UniProt Q92990: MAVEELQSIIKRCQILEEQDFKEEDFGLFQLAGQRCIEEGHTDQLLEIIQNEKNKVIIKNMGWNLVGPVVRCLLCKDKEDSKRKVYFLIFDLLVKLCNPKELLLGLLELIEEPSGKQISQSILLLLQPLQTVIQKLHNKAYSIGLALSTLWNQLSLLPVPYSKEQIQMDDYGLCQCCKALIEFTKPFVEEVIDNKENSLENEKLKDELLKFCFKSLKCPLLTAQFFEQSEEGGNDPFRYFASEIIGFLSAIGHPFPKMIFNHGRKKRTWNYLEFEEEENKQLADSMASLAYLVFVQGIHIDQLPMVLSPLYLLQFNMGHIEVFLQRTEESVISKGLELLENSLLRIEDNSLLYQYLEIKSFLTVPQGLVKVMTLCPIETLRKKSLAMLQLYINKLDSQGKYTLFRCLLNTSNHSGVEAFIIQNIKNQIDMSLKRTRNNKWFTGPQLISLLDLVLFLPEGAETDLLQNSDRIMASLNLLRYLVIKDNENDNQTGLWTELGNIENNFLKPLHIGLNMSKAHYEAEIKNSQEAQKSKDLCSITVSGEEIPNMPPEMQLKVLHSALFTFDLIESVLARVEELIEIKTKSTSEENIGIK
UniProt Q9HAV0, whole entry, looked up: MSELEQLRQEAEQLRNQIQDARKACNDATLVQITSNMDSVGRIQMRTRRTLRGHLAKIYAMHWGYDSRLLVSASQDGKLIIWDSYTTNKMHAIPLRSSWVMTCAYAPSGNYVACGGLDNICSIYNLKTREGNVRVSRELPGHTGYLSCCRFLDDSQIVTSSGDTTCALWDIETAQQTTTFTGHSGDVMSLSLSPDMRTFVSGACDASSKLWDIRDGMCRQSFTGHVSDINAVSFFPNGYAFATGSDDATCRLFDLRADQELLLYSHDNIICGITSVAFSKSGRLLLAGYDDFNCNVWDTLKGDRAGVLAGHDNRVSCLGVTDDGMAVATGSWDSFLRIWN

Columns and labels:
Experiment in all cases: log2 fold change, soluble protein after heating vs DMSO (PISA); higher = thermal stabilisation; K562 cells, 10 uM, 30 min; active = over 0.2 and 3.5 SD of the protein, either way, in both replicates (recomputed)
[1] = compound: NC(=O)Nc1cc(-c2cccc(F)c2)sc1C(=O)N[C@H]1CCCNC1
How it was run: (§1)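 Values are thermal stability changes relative to control samples and are taken from duplicates. They are stated as log2 fold changes. Before quantification by TMTpro 16plex LC-MS/MS with equalised channel sums, K562 cells at 2×10^6 cells/mL were treated with 10 μM compound for 30 min, heated in aliquots for 3 min across 48°C-58°C, pooled, extracted in PBS with 0.5% NP-40 at 4°C, and centrifuged at 21,000xg for 90 min to give the soluble supernatant.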

[2] = compound: NC(=O)c1cnc(N[C@@H]2CCCC[C@@H]2N)nc1Nc1cccc(-n2nccn2)c1
How it was run: as §1

[3] = compound: NC1(c2ccc(-c3nc4ccn5c(=O)[nH]nc5c4cc3-c3ccccc3)cc2)CCC1
How it was run: as §1

[4] = compound: NCC(=O)Nc1ccc(-n2nc(C(F)(F)F)cc2-c2ccc3c(ccc4ccccc43)c2)cc1
How it was run: as §1

entinostat = compound: Nc1ccccc1NC(=O)c1ccc(CNC(=O)OCc2cccnc2)cc1 [entinostat]
How it was run: as §1

vorinostat = compound: O=C(CCCCCCC(=O)Nc1ccccc1)NO [vorinostat]
How it was run: as §1

citarinostat = compound: O=C(CCCCCCNC(=O)c1cnc(N(c2ccccc2)c2ccccc2Cl)nc1)NO [citarinostat]
How it was run: as §1

silmitasertib = compound: O=C(O)c1ccc2c(c1)nc(Nc1cccc(Cl)c1)c1ccncc12 [silmitasertib]
How it was run: as §1

[5] = compound: O=C1NC(=O)C(c2cnc3ccccn23)=C1c1cn2c3c(cc(F)cc13)CN(C(=O)N1CCCCC1)CC2
How it was run: as §1

[6] = compound: c1cc(OCCN2CCCCC2)cc(-c2n[nH]c3ccc(-c4nnc[nH]4)cc23)c1
How it was run: as §1

entospletinib = compound: c1cn2cc(-c3ccc4cn[nH]c4c3)nc(Nc3ccc(N4CCOCC4)cc3)c2n1 [entospletinib]
How it was run: as §1

Measured: log2 fold change

GIGYF2 (UniProt Q6Y7W6)
inactive: [1] -0.102 | [2] -0.062 | [3] -0.046 | [4] -0.079 | entinostat 0.024 | vorinostat 0.103 | citarinostat 0.06 | silmitasertib -0.004 | [5] -0.016 | [6] -0.065

GMNN (UniProt O75496)
inactive: [1] -0.003 | [2] -0.011 | [3] -0.012 | [4] 0.04 | entinostat -0.015 | vorinostat -0.035 | citarinostat 0.002 | silmitasertib -0.074 | [5] 0.004 | [6] 0.026 | entospletinib -0.008

GOT1 (UniProt P17174)
inactive: [1] 0.026 | [2] 0.014 | [3] 0.009 | [4] -0.002 | entinostat -0.025 | vorinostat -0.007 | citarinostat 0.027 | silmitasertib -0.032 | [5] -0.015 | [6] -0.026 | entospletinib -0.021

GOLGA4 isoform 5 (UniProt Q13439)
inactive: [1] -0.072 | [2] -0.108 | [3] -0.01 | [4] -0.085 | entinostat 0.038 | vorinostat 0 | citarinostat -0.196 | silmitasertib 0.121 | [5] -0.062 | [6] -0.172 | entospletinib 0.05

GLA (UniProt P06280)
inactive: [1] 0.04 | [2] -0.049 | [3] -0.143 | [4] -0.066 | entinostat -0.034 | vorinostat 0.056 | citarinostat 0.027 | silmitasertib -0.03 | [5] -0.036 | [6] 0.029

GMEB2 (UniProt Q9UKD1)
inactive: [1] -0.039 | [2] -0.079 | [3] 0.056 | [4] -0.119 | entinostat 0.064 | vorinostat 0.063 | citarinostat 0.086 | silmitasertib 0.044 | [5] -0.194 | [6] -0.037

GNAI3 (UniProt P08754)
inactive: [1] -0.016 | [2] 0.022 | [3] -0.046 | [4] 0.003 | entinostat -0.04 | vorinostat -0.016 | citarinostat -0.018 | silmitasertib 0.052 | [5] -0.027 | [6] -0.076

GLUL (UniProt P15104)
inactive: [1] 0.059 | [2] -0.104 | [3] 0.061 | [4] 0.018 | entinostat -0.009 | vorinostat 0.04 | citarinostat -0.024 | silmitasertib 0.032 | [5] -0.012 | [6] -0.087

GNL1 (UniProt P36915)
inactive: [1] -0.045 | [2] -0.071 | [3] -0.114 | [4] -0.019 | entinostat 0.001 | vorinostat 0.008 | citarinostat 0.022 | silmitasertib -0.021 | [5] -0.005 | [6] -0.011

GPBP1L1 (UniProt Q9HC44)
inactive: [1] -0.013 | [2] 0.026 | [3] -0.179 | [4] -0.004 | entinostat 0.013 | vorinostat 0.039 | citarinostat -0.026 | silmitasertib 0.133 | [5] -0.003 | [6] -0.074 | entospletinib 0.058

GLB1L2 (UniProt Q8IW92)
inactive: [1] 0.06 | [2] 0.038 | [3] 0.073 | [4] 0.017 | entinostat -0.023 | vorinostat 0.035 | citarinostat 0.066 | silmitasertib 0.001 | [5] -0.009 | [6] -0.042 | entospletinib -0.024

GNPDA1 (UniProt P46926)
inactive: [1] 0.019 | [2] -0.005 | [3] 0.005 | [4] 0.018 | entinostat -0.014 | vorinostat 0.017 | citarinostat 0.019 | silmitasertib 0.03 | [5] -0.026 | [6] -0.023 | entospletinib -0.005

GNAI2 isoform 4 (UniProt P04899)
inactive: [1] -0.146 | [2] 0.053 | [3] -0.004 | [4] 0.087 | entinostat -0.042 | vorinostat -0.058 | citarinostat -0.003 | silmitasertib 0.06 | [5] -0.07 | [6] -0.029 | entospletinib 0.144

GPD1L (UniProt Q8N335)
inactive: [1] 0.002 | [2] -0.007 | [3] -0.017 | [4] -0.001 | entinostat 0 | vorinostat 0.043 | citarinostat 0.012 | silmitasertib -0.051 | [5] -0.051 | [6] 0.032 | entospletinib -0.117

GOLT1B (UniProt Q9Y3E0)
inactive: [1] -0.089 | [2] -0.054 | [3] -0.028 | [4] -0.078 | entinostat -0.038 | vorinostat 0.029 | citarinostat 0.091 | silmitasertib -0.015 | [5] 0.031 | [6] 0.121 | entospletinib -0.003

GNA13 (UniProt Q14344)
inactive: [1] -0.038 | [2] 0.016 | [3] 0.038 | [4] -0.039 | entinostat -0.052 | vorinostat -0.013 | citarinostat 0.014 | silmitasertib 0.019 | [5] -0.041 | [6] -0.016 | entospletinib 0.018

GPALPP1 (UniProt Q8IXQ4)
inactive: [1] 0.053 | [2] -0.012 | [3] 0.012 | [4] -0.008 | entinostat -0.003 | vorinostat 0.034 | citarinostat -0.014 | silmitasertib 0.011 | [5] -0.048 | [6] -0.056 | entospletinib -0.009

GNB1 (UniProt P62873)
inactive: [1] -0.054 | [2] 0.09 | [3] 0.05 | [4] 0.019 | entinostat -0.05 | vorinostat 0.045 | citarinostat 0.012 | silmitasertib 0.015 | [5] 0.007 | [6] -0.004 | entospletinib 0.005

GINS4 (UniProt Q9BRT9)
inactive: [1] -0.001 | [2] 0.049 | [3] -0.063 | [4] -0.003 | entinostat 0.064 | vorinostat 0.089 | citarinostat 0.082 | silmitasertib -0.033 | [5] 0.06 | [6] -0.015 | entospletinib -0.015

GNAQ (UniProt P50148)
inactive: [1] -0.12 | [2] 0.055 | [3] 0.03 | [4] -0.003 | entinostat -0.016 | vorinostat -0.049 | citarinostat -0.044 | silmitasertib -0.002 | [5] -0.085 | [6] -0.088 | entospletinib 0.006

GPN3 isoform 2 (UniProt Q9UHW5)
inactive: [1] -0.03 | [2] 0.077 | [3] -0.023 | [4] 0.061 | entinostat 0.036 | vorinostat 0.061 | citarinostat -0.002 | silmitasertib -0.014 | [5] 0.007 | [6] 0.021 | entospletinib 0.007

GNPNAT1 (UniProt Q96EK6)
inactive: [1] 0.039 | [2] 0.009 | [3] 0.002 | [4] 0.026 | entinostat -0.056 | vorinostat -0.045 | citarinostat -0.018 | silmitasertib 0.013 | [5] 0.003 | [6] -0.063 | entospletinib 0.033

GM2A (UniProt P17900)
inactive: [1] -0.002 | [2] 0.058 | [3] -0.035 | [4] -0.037 | entinostat 0.023 | vorinostat -0.062 | citarinostat -0.15 | silmitasertib 0.027 | [5] -0.037 | [6] 0.607 | entospletinib -0.061

GLMN (UniProt Q92990)
inactive: [1] -0.008 | [2] 0.008 | [3] -0.077 | [4] -0.028 | entinostat -0.009 | vorinostat 0.027 | citarinostat 0.032 | silmitasertib 0.033 | [5] -0.005 | [6] -0.031 | entospletinib -0.038

GOLGA3 (UniProt Q08378)
inactive: [1] 0.005 | [2] 0.024 | [3] -0.025 | [4] -0.005 | entinostat -0.002 | vorinostat -0.026 | citarinostat -0.033 | silmitasertib 0.046 | [5] 0.017 | [6] 0.025 | entospletinib 0.007

GRWD1 (UniProt Q9BQ67)
inactive: [1] 0.076 | [2] -0.016 | [3] 0.245 | [4] 0.086 | entinostat -0.107 | vorinostat -0.004 | citarinostat -0.122 | silmitasertib 0.135 | [5] 0.137 | [6] -0.112 | entospletinib 0.112

GNB4 (UniProt Q9HAV0)
inactive: [1] -0.05 | [2] 0.148 | [3] -0.172 | [4] 0.094 | entinostat 0.159 | vorinostat 0.042 | citarinostat -0.127 | silmitasertib 0.082 | [5] 0.045 | [6] 0.061 | entospletinib -0.032

GORASP2 isoform 3 (UniProt Q9H8Y8)
inactive: [1] -0.078 | [2] 0.061 | [3] -0.085 | [4] -0.129 | entinostat 0.037 | vorinostat 0.032 | citarinostat -0.027 | silmitasertib 0.085 | [5] -0.004 | [6] 0.027 | entospletinib -0.062

2 entries drawn at random from those above, as already listed:
GNB1 (UniProt P62873)
inactive: [1] -0.054 | [2] 0.09 | [3] 0.05 | [4] 0.019 | entinostat -0.05 | vorinostat 0.045 | citarinostat 0.012 | silmitasertib 0.015 | [5] 0.007 | [6] -0.004 | entospletinib 0.005

GLUL (UniProt P15104)
inactive: [1] 0.059 | [2] -0.104 | [3] 0.061 | [4] 0.018 | entinostat -0.009 | vorinostat 0.04 | citarinostat -0.024 | silmitasertib 0.032 | [5] -0.012 | [6] -0.087
